{
  "source": "ChEMBL document CHEMBL4316593",
  "about": "(Eur J Med Chem, 2019)",
  "assay_type_in_all_cases": "cell-based",
  "conditions_in_all_cases": "U-87MG ATCC",
  "key": {"[1]": {"experiment": "Inhibition of RTK/PI3K/AKT/mTOR signaling in human U87 cells assessed as up regulation of HSPA9 gene expression at cytotoxic IC50 measured after 48 hrs relative to control"}, "[2]": {"experiment": "Inhibition of RTK/PI3K/AKT/mTOR signaling in human U87 cells assessed as up regulation of NOP14 nucleolar protein gene expression at cytotoxic IC50 measured after 48 hrs relative to control"}, "[3]": {"experiment": "Inhibition of RTK/PI3K/AKT/mTOR signaling in human U87 cells assessed as down regulation of KLHL9 gene expression at cytotoxic IC50 measured after 48 hrs relative to control"}, "[4]": {"experiment": "Inhibition of RTK/PI3K/AKT/mTOR signaling in human U87 cells assessed as up regulation of protein kinase cAMP-activated catalytic subunit beta gene expression at cytotoxic IC50 measured after 48 hrs relative to control"}, "[5]": {"experiment": "Inhibition of RTK/PI3K/AKT/mTOR signaling in human U87 cells assessed as up regulation of BHLHA15 gene expression at cytotoxic IC50 measured after 48 hrs relative to control"}, "[6]": {"experiment": "Inhibition of RTK/PI3K/AKT/mTOR signaling in human U87 cells assessed as down regulation of EXOSC6 gene expression at cytotoxic IC50 measured after 48 hrs relative to control"}, "[7]": {"experiment": "Inhibition of RTK/PI3K/AKT/mTOR signaling in human U87 cells assessed as up regulation of CDC25B gene expression at cytotoxic IC50 measured after 48 hrs relative to control"}, "[8]": {"experiment": "Inhibition of RTK/PI3K/AKT/mTOR signaling in human U87 cells assessed as up regulation of adenylate kinase 2 gene expression at cytotoxic IC50 measured after 48 hrs relative to control"}, "[9]": {"experiment": "Inhibition of RTK/PI3K/AKT/mTOR signaling in human U87 cells assessed as down regulation of PEX26 gene expression at cytotoxic IC50 measured after 48 hrs relative to control"}, "[10]": {"experiment": "Inhibition of RTK/PI3K/AKT/mTOR signaling in human U87 cells assessed as down regulation of UHRF1BP1L gene expression at cytotoxic IC50 measured after 48 hrs relative to control"}, "[11]": {"experiment": "Inhibition of RTK/PI3K/AKT/mTOR signaling in human U87 cells assessed as down regulation of VPS39 gene expression at cytotoxic IC50 measured after 48 hrs relative to control"}, "[12]": {"experiment": "Inhibition of RTK/PI3K/AKT/mTOR signaling in human U87 cells assessed as up regulation of KCNN4 gene expression at cytotoxic IC50 measured after 48 hrs relative to control"}, "[13]": {"experiment": "Inhibition of RTK/PI3K/AKT/mTOR signaling in human U87 cells assessed as up regulation of actin binding LIM protein 1 gene expression at cytotoxic IC50 measured after 48 hrs relative to control"}, "[14]": {"experiment": "Inhibition of RTK/PI3K/AKT/mTOR signaling in human U87 cells assessed as down regulation of HSPA8 gene expression at cytotoxic IC50 measured after 48 hrs relative to control"}, "[15]": {"experiment": "Inhibition of RTK/PI3K/AKT/mTOR signaling in human U87 cells assessed as down regulation of TSPAN13 gene expression at cytotoxic IC50 measured after 48 hrs relative to control"}, "[16]": {"experiment": "Inhibition of RTK/PI3K/AKT/mTOR signaling in human U87 cells assessed as down regulation of VPS4B gene expression at cytotoxic IC50 measured after 48 hrs relative to control"}, "[17]": {"experiment": "Inhibition of RTK/PI3K/AKT/mTOR signaling in human U87 cells assessed as down regulation of NDEL1 gene expression at cytotoxic IC50 measured after 48 hrs relative to control"}, "[18]": {"experiment": "Inhibition of RTK/PI3K/AKT/mTOR signaling in human U87 cells assessed as up regulation of INF2 gene expression at cytotoxic IC50 measured after 48 hrs relative to control"}, "[19]": {"experiment": "Inhibition of RTK/PI3K/AKT/mTOR signaling in human U87 cells assessed as up regulation of interferon regulatory factor 2 binding protein 2 gene expression at cytotoxic IC50 measured after 48 hrs relative to control"}, "[20]": {"experiment": "Inhibition of RTK/PI3K/AKT/mTOR signaling in human U87 cells assessed as down regulation of AP2A1 gene expression at cytotoxic IC50 measured after 48 hrs relative to control"}, "[21]": {"experiment": "Inhibition of RTK/PI3K/AKT/mTOR signaling in human U87 cells assessed as down regulation of LOC105377348 gene expression at cytotoxic IC50 measured after 48 hrs relative to control"}, "[22]": {"experiment": "Inhibition of RTK/PI3K/AKT/mTOR signaling in human U87 cells assessed as up regulation of solute carrier family 29 member 2 gene expression at cytotoxic IC50 measured after 48 hrs relative to control"}, "[23]": {"experiment": "Inhibition of RTK/PI3K/AKT/mTOR signaling in human U87 cells assessed as down regulation of PTPN14 gene expression at cytotoxic IC50 measured after 48 hrs relative to control"}, "[24]": {"experiment": "Inhibition of RTK/PI3K/AKT/mTOR signaling in human U87 cells assessed as down regulation of KAT2B gene expression at cytotoxic IC50 measured after 48 hrs relative to control"}, "[25]": {"experiment": "Inhibition of RTK/PI3K/AKT/mTOR signaling in human U87 cells assessed as down regulation of SKA1 gene expression at cytotoxic IC50 measured after 48 hrs relative to control"}, "[26]": {"experiment": "Inhibition of RTK/PI3K/AKT/mTOR signaling in human U87 cells assessed as down regulation of RND1 gene expression at cytotoxic IC50 measured after 48 hrs relative to control"}, "[27]": {"experiment": "Inhibition of RTK/PI3K/AKT/mTOR signaling in human U87 cells assessed as down regulation of NQO1 gene expression at cytotoxic IC50 measured after 48 hrs relative to control"}, "[28]": {"experiment": "Inhibition of RTK/PI3K/AKT/mTOR signaling in human U87 cells assessed as down regulation of SLC30A1 gene expression at cytotoxic IC50 measured after 48 hrs relative to control"}, "[29]": {"experiment": "Inhibition of RTK/PI3K/AKT/mTOR signaling in human U87 cells assessed as down regulation of C3orf38 gene expression at cytotoxic IC50 measured after 48 hrs relative to control"}, "[30]": {"experiment": "Inhibition of RTK/PI3K/AKT/mTOR signaling in human U87 cells assessed as up regulation of major facilitator superfamily domain containing 10 gene expression at cytotoxic IC50 measured after 48 hrs relative to control"}, "[31]": {"experiment": "Inhibition of RTK/PI3K/AKT/mTOR signaling in human U87 cells assessed as down regulation of ARPC5 gene expression at cytotoxic IC50 measured after 48 hrs relative to control"}, "[32]": {"experiment": "Inhibition of RTK/PI3K/AKT/mTOR signaling in human U87 cells assessed as down regulation of PRDM4 gene expression at cytotoxic IC50 measured after 48 hrs relative to control"}},
  "note": "The source gives many values for each of these; only a part stands here.",
  "data": [
    {"smiles": "CC(=O)C(=NNc1ccccc1C#N)C(C)=O", "values": [
      {"measurement": "log2FC", "setting": "[1]", "result": 0.435},
      {"measurement": "log2FC", "setting": "[2]", "result": 0.672},
      {"measurement": "log2FC", "setting": "[3]", "result": -1.02},
      {"measurement": "log2FC", "setting": "[4]", "result": 0.897},
      {"measurement": "log2FC", "setting": "[5]", "result": 3.83},
      {"measurement": "log2FC", "setting": "[6]", "result": -0.96},
      {"measurement": "log2FC", "setting": "[7]", "result": 0.602},
      {"measurement": "log2FC", "setting": "[8]", "result": 1.05},
      {"measurement": "log2FC", "setting": "[9]", "result": -0.847},
      {"measurement": "log2FC", "setting": "[10]", "result": -0.736},
      {"measurement": "log2FC", "setting": "[11]", "result": -0.638},
      {"measurement": "log2FC", "setting": "[12]", "result": 2.08},
      {"measurement": "log2FC", "setting": "[13]", "result": 0.682},
      {"measurement": "log2FC", "setting": "[14]", "result": -1.57},
      {"measurement": "log2FC", "setting": "[15]", "result": -1.29},
      {"measurement": "log2FC", "setting": "[16]", "result": -0.672},
      {"measurement": "log2FC", "setting": "[17]", "result": -0.637},
      {"measurement": "log2FC", "setting": "[18]", "result": 0.588},
      {"measurement": "log2FC", "setting": "[19]", "result": 0.679},
      {"measurement": "log2FC", "setting": "[20]", "result": -0.649},
      {"measurement": "log2FC", "setting": "[21]", "result": -2.76},
      {"measurement": "log2FC", "setting": "[22]", "result": 1.11},
      {"measurement": "log2FC", "setting": "[23]", "result": -0.791},
      {"measurement": "log2FC", "setting": "[24]", "result": -1.71},
      {"measurement": "log2FC", "setting": "[25]", "result": -1.49},
      {"measurement": "log2FC", "setting": "[26]", "result": -1.55},
      {"measurement": "log2FC", "setting": "[27]", "result": -0.495},
      {"measurement": "log2FC", "setting": "[28]", "result": -0.523},
      {"measurement": "log2FC", "setting": "[29]", "result": -0.862},
      {"measurement": "log2FC", "setting": "[30]", "result": 0.74},
      {"measurement": "log2FC", "setting": "[31]", "result": -0.836},
      {"measurement": "log2FC", "setting": "[32]", "result": -0.79}
    ]}
  ]
}
